For two substances, binding results are on record in paper PMC6915307.

Amino acid sequences for entries named in this document (tags omitted).
UniProt P42768: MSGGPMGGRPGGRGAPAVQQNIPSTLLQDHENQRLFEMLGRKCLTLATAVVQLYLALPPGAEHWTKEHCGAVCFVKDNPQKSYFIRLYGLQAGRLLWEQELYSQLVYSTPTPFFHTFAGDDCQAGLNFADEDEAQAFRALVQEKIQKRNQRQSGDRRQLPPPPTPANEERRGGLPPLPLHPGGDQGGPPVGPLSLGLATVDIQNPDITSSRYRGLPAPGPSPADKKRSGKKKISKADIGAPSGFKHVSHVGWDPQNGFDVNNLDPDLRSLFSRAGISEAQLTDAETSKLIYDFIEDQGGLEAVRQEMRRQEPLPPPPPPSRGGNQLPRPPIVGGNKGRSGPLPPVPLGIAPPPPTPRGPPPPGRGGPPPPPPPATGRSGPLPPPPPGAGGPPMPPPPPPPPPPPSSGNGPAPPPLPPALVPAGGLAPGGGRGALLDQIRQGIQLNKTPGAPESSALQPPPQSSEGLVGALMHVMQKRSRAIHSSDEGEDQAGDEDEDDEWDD
UniProt P49023: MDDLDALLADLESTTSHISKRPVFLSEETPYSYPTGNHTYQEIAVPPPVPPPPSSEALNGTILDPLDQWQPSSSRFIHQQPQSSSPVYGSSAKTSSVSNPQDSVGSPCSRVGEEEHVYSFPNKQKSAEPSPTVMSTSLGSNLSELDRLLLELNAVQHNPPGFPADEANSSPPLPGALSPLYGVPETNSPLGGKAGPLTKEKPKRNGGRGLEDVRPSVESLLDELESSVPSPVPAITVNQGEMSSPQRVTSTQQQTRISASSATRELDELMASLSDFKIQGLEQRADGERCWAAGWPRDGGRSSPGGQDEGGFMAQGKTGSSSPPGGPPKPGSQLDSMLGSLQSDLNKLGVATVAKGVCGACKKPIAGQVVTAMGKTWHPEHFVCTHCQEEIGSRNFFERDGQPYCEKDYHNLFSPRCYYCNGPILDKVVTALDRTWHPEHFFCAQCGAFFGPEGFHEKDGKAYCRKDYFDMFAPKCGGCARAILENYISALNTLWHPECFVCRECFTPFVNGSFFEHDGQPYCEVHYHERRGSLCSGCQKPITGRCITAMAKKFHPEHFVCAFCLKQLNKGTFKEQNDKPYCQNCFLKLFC
UniProt O96013: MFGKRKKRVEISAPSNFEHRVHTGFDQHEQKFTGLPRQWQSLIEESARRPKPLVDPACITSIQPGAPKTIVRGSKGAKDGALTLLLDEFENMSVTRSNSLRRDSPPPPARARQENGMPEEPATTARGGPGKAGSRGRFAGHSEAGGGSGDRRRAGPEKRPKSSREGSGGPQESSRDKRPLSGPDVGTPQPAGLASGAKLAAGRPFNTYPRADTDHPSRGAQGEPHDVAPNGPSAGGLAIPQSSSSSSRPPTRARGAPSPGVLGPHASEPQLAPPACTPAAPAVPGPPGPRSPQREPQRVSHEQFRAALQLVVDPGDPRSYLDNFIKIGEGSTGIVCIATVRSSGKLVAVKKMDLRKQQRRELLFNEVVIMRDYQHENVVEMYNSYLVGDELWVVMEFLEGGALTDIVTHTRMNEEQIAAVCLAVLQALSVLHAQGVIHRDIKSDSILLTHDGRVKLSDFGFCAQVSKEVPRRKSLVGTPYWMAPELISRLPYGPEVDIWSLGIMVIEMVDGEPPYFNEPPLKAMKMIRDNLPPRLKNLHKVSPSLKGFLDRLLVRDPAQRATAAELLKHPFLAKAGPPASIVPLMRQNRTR

These are yes or no findings as the source states them, for the method shown. In cells and extracts the contact can be indirect. Some results given as binding are weak or reduced against the parent protein; the word gives no strength.

Experiment [1] concerns the target WASP (human (endogenous in THP-1)) (UniProt P42768). The experiment is described as follows: co-IP; anti-WASP immunoprecipitation, blot for PAK4 (Figure S4D).
Experiment [2] deals with paxillin (human (endogenous in THP-1)) (UniProt P49023). The experiment is described as follows: co-IP; endogenous PAK4 in immunoprecipitates when a large number of cells was used (Figure S4C).
The target is the same in experiment [3]. The experiment is described as follows: co-IP; THP-1 cells stably expressing EGFP-PAK4, seeded on fibronectin with TGF-beta for 16 h; lysate (0.5% NP-40 lysis buffer) incubated with 1-2 ug anti-paxillin or anti-vinculin overnight at 4 C, protein A/G agarose; blots probed for PAK4 and reprobed for GFP.

On to “endogenous PAK4 (from UniProt O96013 1-591) (enzyme)”, for which the binding entry in experiment [1] is “no binding”; in experiment [2], “binds weakly”. Take “EGFP-PAK4 (from UniProt O96013 1-591) (enzyme)”: the binding result in experiment [3] is given as “binds”.
